Source: PubChem BioAssay AID1347076 (National Center for Advancing Translational Sciences (NCATS), 2019)
About 13,000 (3.2%) of roughly 400,000 compounds were called active. This list was built around the results that the source calls inconclusive (neither active nor inactive); the mix of calls is not that of the screen. The call rests on the fitted dose curve; in most records, active means well fitted cell-killing curve with a large enough effect; inconclusive means small, poorly fitted or top-dose-only effect, or effect the other way; inactive means flat fitted curve, though single readings scatter. Potencies beside an inconclusive call are fits to weak or partial responses and may not hold up.

assay: qHTS assay for MDR1-selective chemotherapeutics: Primary screen using the drug-selected MDR subline cells KB-V1; conditions: KB-V1 MDR cells viability, CellTiter-Glo, 72 h; activity change, negative = cytotoxicity: at 46.1 µM (top of the series); further: nearly all actives have a fitted effect of over 60% in size
Summary of the method: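 Readout: CellTiter-Glo luminescence, 10 min after addition. Cells: KB-V1 MDR subline, 72 h at 37 degrees C with compound. Analysis: corrected, normalized data fitted to concentration-effect curves.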
On the % scale 0 is the no-effect control and ±100 the full control effect; potency means the concentration at half of the fitted maximal effect.

| Structure (SMILES) | Potency | activity change, negative = cytotoxicity |
| --- | --- | --- |
| O=C(c1ccccc1)[C@@H]1[C@@H](C(=O)c2ccc(F)cc2)[C@@]2(C(=O)Nc3ccccc32)[C@H]2c3ccccc3C=CN12 | inconclusive: 8.2 µM [cytotoxic, partial curve] | – |
| CC1(C(=O)NC2CCN(Cc3ccccc3)CC2)CCN1Cc1ccc2ccccc2c1 (centres undefined) | inconclusive: 9.2 µM [cytotoxic, partial curve] | – |
| NS(=O)(=O)c1ccc(NNC(=O)c2ccccc2C(=O)O)cc1 | – | inactive: -1.16% |
| CC1=CC(=C2N=C(c3ccccc3)OC2=O)C=C(C)O1 | inconclusive: 23.1 µM [cytotoxic, single point] | – |
| O=C(CSc1ncnc2sc3c(c12)CCCC3)NC1CCS(=O)(=O)C1 (centres undefined) | active: 9.2 µM | – |
| O=C(NC(=O)N1CCN(c2ccccc2)CC1)c1ccc(Cl)cc1 | inconclusive: 29.1 µM [cytotoxic, single point] | – |
| N#C/C(=C\c1cc(Br)c(O)c(Br)c1)c1nc2ccccc2c(=O)[nH]1 | – | inactive: -2.58% |
| O=C(c1cc(COc2c(F)cccc2F)on1)N1CCC(c2ccncc2)CC1 | inconclusive: 1.64 µM [cytotoxic, full curve] | – |
| CCOc1ccc(NC(=O)C(C)n2c(=O)cc(C)c3c(C)nn(-c4ccccc4)c32)cc1 (centres undefined) | – | inactive: 2.5% |
| Cc1sc2ncnc(N3CCC(C(=O)NNC(=O)c4ccc(Cl)cc4)CC3)c2c1C | inconclusive: 7.31 µM [cytotoxic, partial curve] | – |
| CN(C)S(=O)(=O)c1cccc(NC(=O)Cc2ccc(Cl)cc2)c1 | active: 20.6 µM | – |
| c1ccc2c(N3CCCC3)nc(-c3ccncc3)nc2c1 | – | inactive: -28.5% |
| COc1cccc2cc(-c3nc4ccccc4[nH]3)c(=O)oc12 | – | inactive: 0% |
| Cc1cnn(CCC(=O)NNC(=S)Nc2ccccc2)c1 | inconclusive: 14.1 µM [rising, partial curve, poor fit] | – |
| CN(C)c1ccc(/C=N/c2cc(-c3ccccc3)nn2-c2ccccc2)cc1 | inconclusive: 20.6 µM [cytotoxic, single point] | – |
| CCN(CC)CCSc1nnc2c3cc(F)ccc3n(CC)c2n1 | inconclusive: 23.1 µM [cytotoxic, single point] | – |
| COc1ccc(NS(=O)(=O)c2ccc(S(=O)(=O)N3CCCC3)cc2)cc1Cl | inconclusive: 18.4 µM [cytotoxic, single point] | – |

| Structure (SMILES) | Potency | activity change, negative = cytotoxicity |
| --- | --- | --- |
| COc1cccc(C(=O)n2nc(-c3cccnc3)nc2NCc2ccc(F)cc2)c1 | – | inactive: 11% |
| CCN(C1CCCCC1)S(=O)(=O)c1ccc(S(=O)(=O)NCCc2ccncc2)cc1 | active: 20.6 µM | – |
| Cc1cc(-c2ccccc2)nc(N(C)NC(=O)C2CC2)c1S(C)(=O)=O | inconclusive: 18.4 µM [cytotoxic, partial curve, poor fit] | – |
| COC(=O)c1ccc2c(=O)n(CCCCCC(=O)N3CCN(c4ccc(Cl)cc4)CC3)c(=O)[nH]c2c1 | – | inactive: 3.19% |
| CCOCCCNCC(=O)N1CCN(S(=O)(=O)c2ccc(C)cc2)CC1 | inconclusive: 15.8 µM [rising, partial curve, poor fit] | – |
| COc1ccc(C=C(C(=O)c2ccccc2)C(=O)c2ccccc2)cc1 | inconclusive: 23.1 µM [cytotoxic, single point] | – |
| COc1cc2ccccc2cc1C(=O)Nc1ccc(S(=O)(=O)Nc2cc(C)on2)cc1 | – | inactive: -2.9% |
| O=c1[nH]ncc(N/N=C\c2cccnc2)c1Cl | inconclusive: 2.31 µM [cytotoxic, partial curve, poor fit] | – |
| COc1cccc(C(=O)N2CCC(n3nccc3NC(=O)CCOc3ccccc3)CC2)c1 | – | inactive: 0% |
| C=CCNc1ncnc2c1[nH]c1ccc(C)cc12 | inconclusive: 16.4 µM [cytotoxic, single point] | – |
| CCOc1ccc(Cn2c3ccc(OC)cc3c3nc4ccccc4nc32)cc1 | – | inactive: -2.86% |
| COc1cc2oc3ccc(C#Cc4ccccn4)cc3c(=O)c2cc1OC | inconclusive: 32.6 µM [cytotoxic, single point] | – |
| CN(CCNC(=O)c1ccc(N2CCCC2=O)cc1)CCc1ccccc1 | – | inactive: -1.38% |
| CCN(CC)C(=O)c1ccc(COc2ccccc2Cl)o1 | inconclusive: 14.6 µM [cytotoxic, single point] | – |
| CCCSc1nnc2c(n1)OC(c1cccs1)Nc1ccc(Br)cc1-2 (centres undefined) | – | inactive: 12.4% |
| COC(=O)c1ccc(NC(=O)CN(Cc2ccccc2)S(=O)(=O)c2ccc(Cl)cc2)cc1 | inconclusive: 9.2 µM [cytotoxic, partial curve, poor fit] | – |
| CCCC(=O)Nc1ccc2nc(SCC(=O)Nc3ccc(N4CCOCC4)c(Cl)c3)sc2c1 | inconclusive: 29.1 µM [cytotoxic, single point] | – |

Individual results from above.
For Potency, CCN(C1CCCCC1)S(=O)(=O)c1ccc(S(=O)(=O)NCCc2ccncc2)cc1 shows active: 20.6 µM
For Potency, Cc1cc(-c2ccccc2)nc(N(C)NC(=O)C2CC2)c1S(C)(=O)=O shows inconclusive: 18.4 µM [cytotoxic, partial curve, poor fit]
